{"source": "PubChem BioAssay AID284", "about": "(DTP/NCI, 2004)", "tested_on": "BDF1 mice, L1210/MTX-resistant leukemia ip, survival T/C", "experiment": "NCI In Vivo Anticancer Drug Screen. Data for tumor model L1210 Leukemia resistant to Methotrexate; NSC 740 (intraperitoneal) in B6D2F1 (BDF1) mice", "settings": "T/C endpoint: mean survival time, schedule: Q01DX Z (ip), vehicle: methylcellulose (MC), higher T/C = longer survival", "method": "The antitumor activity of compounds was measured in mice bearing transplantable tumors. Survival or tumor size were measured and the results are expressed as the measurement made in the treated group (T) divided by the measurement made in the vehicle treated control group (C). The tumor model used in this assay is L1210 Leukemia resistant to Methotrexate; NSC 740 (intraperitoneal) in B6D2F1 (BDF1) mice", "note": "The list does not hold the whole screen: it gathers tests that were run many times, whatever their T/C, doses with no T/C, and many T/C values between a quarter and a half above the control. Other doses and runs of a compound stand elsewhere. T/C: endpoint of the treated group in % of that of the vehicle group. Some doses have a count of surviving animals in place of a T/C: the source files T/C as zero there, which appears to mark a toxic dose or a test without result, not a measured value. Some doses without a T/C left all or most animals alive at the check, yet need not have been tolerated: survival well below the control is almost never listed, so the zero probably covers shortened survival too. Counts of survivors are from the toxicity check (mostly the fifth day) where no day follows; animals may have died later. Schedules are NCI's codes, read here as Q, the interval in days (D) or hours (H), X, the number of doses. Some schedules carry Z or #; the key to these is not given."}
{"smiles": "O=C1N(Cl)C(=O)C(c2ccc(Cl)cc2)(c2ccc(Cl)cc2)N1Cl", "values": [{"measurement": "survivor count", "setting": "dose: 6.3 mg/kg/injection", "result": "6 of 6"}, {"measurement": "survivor count", "setting": "dose: 12.5 mg/kg/injection", "result": "6 of 6"}]}
